In US20160031955A1 (INSERM INSTITUT NATIONAL DE LA SANT ET DE LA RECHERCHE M …, published 2016):
No constants are given. Whether binding was seen depends on the method and setting. In cells and extracts the contact can be indirect. These calls come from enrichment with a bait or labelling near it, and not all partners need be listed.

Protein sequences, listed by entry. Tags and fused reporters are not part of them. Residues count along the entry.
UniProt O95831, residues 55-613: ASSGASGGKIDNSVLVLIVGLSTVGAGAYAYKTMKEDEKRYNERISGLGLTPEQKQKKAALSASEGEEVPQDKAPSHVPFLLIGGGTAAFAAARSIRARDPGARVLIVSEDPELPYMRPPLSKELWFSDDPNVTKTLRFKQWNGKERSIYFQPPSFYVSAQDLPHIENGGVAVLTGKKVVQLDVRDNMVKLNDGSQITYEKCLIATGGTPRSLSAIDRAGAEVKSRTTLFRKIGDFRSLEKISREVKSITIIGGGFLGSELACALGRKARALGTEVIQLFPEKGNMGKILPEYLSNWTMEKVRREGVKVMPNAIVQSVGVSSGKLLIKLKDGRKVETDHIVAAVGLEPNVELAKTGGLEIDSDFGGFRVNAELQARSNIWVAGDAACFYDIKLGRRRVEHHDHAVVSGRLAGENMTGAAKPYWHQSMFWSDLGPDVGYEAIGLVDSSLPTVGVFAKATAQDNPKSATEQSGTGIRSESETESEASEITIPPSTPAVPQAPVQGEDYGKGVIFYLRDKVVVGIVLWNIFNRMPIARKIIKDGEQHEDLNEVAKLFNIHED

Columns and labels:
[1] = biological target: endogenous AIF (apoptosis inducing factor) contained in human cell lysates (human) (UniProt O95831); assay: immunoprecipitation of AIF, SDS/PAGE, mass spectrometry
[2] = biological target: endogenous AIF (apoptosis inducing factor) contained in human cell lysates (human) (UniProt O95831); assay: immunoprecipitation of AIF from human cervical cancer cells, mass spectrometry

binding [1]: binds
binding [2]: binds
B1: endogenous human MIA40 isoform 1 (CHCHD4.1) (protein)
chain: MSYCRQEGKDRIIFVTKEDHETPSSAELVADDPNDPYEEHGLILPNGNINWNCPCLGGMASGPCGEQFKSAFSCFHYSTEEIKGSDCVDQFRAMQECMQKYPDLYPQEDEDEEEEREKKPAEQAEETAPIEATATKEEEGSS
